{
  "source": "PubChem BioAssay AID2685",
  "about": "(National Center for Advancing Translational Sciences (NCATS), 2010)",
  "note": "About 2,100 (0.66%) of roughly 320,000 compounds were called active. The inconclusive results got no clear call from the source; some entries with a clear call stand among them for comparison. Calls come from the whole dose curve; as a rule, active = well fitted inhibition curve with a large enough effect in the signal ratio, with a control signal flat (not every such curve was filed as active); inconclusive = small, poorly fitted or top-dose-only effect, or effect the other way, or a change in a side signal; inactive = flat fitted curve, though single readings scatter; the % refers to the signal ratio. Where the call is inconclusive, the potency comes from a doubtful curve fit. % is set by controls: 0 for no effect and ±100 for the full control effect; potency is the fitted concentration of half-maximal effect.",
  "data": [
    {"test": "qHTS Assay for Lipid Storage Modulators in Drosophila S3 Cells", "settings": "BODIPY lipid droplet fluorescence, 18-24 h, cells fed with added oleic acid; lipid storage change, negative = inhibition: at 46.1 µM (top of the series) unless noted", "summary_of_the_method": "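Drosophila S3 cells got compounds at several concentrations plus oleic acid (400 uM solution). Laser-scanning cytometry with 488 nm excitation read lipid droplets at 500-530 nm and cells at 575-640 nm. Percent activity was relative to 20 uM Triacsin C.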", "values": [
      {"smiles": "O=C(Nc1ccccc1C(=O)N1CCCCC1)c1ccc(Cl)cc1Cl", "lipid storage change, negative = inhibition": "inconclusive: -48.7%"},
      {"smiles": "CC(=O)Oc1cccc(/C=C2\\C=C(c3ccc(C)cc3)OC2=O)c1", "lipid storage change, negative = inhibition": "inconclusive: -1.86%"},
      {"smiles": "O=C(CCN1CCOCC1)Nc1cccc(Br)c1", "lipid storage change, negative = inhibition": "inconclusive: -137%"},
      {"smiles": "Cc1ccc(NC(=O)c2cc(-c3ccccc3)nn2-c2ccccc2)c(Br)c1", "lipid storage change, negative = inhibition": "inconclusive: -14.2%"},
      {"smiles": "COC(=O)c1cc(C(=O)Nc2nnc(CC(C)C)s2)cc([N+](=O)[O-])c1", "lipid storage change, negative = inhibition": "inconclusive: -1.56%"},
      {"smiles": "COc1cccc(C(=O)COc2ccc3c(C)cc(=O)oc3c2)c1", "lipid storage change, negative = inhibition": "inconclusive: -63.4%"},
      {"smiles": "O=C(c1nnc(-c2ccncc2)o1)c1ccccc1Cl", "lipid storage change, negative = inhibition": "inconclusive: 27.4%"},
      {"smiles": "CN(C)S(=O)(=O)c1ccc(C(=O)Nc2nnc(SCc3ccccc3)s2)cc1", "lipid storage change, negative = inhibition": "inconclusive: 27.7%"},
      {"smiles": "Cc1n[nH]c(=O)nc1NCc1ccccc1", "lipid storage change, negative = inhibition": "inconclusive: 1.12%"},
      {"smiles": "Brc1ccc(OCCOc2cccc3cccnc23)cc1", "lipid storage change, negative = inhibition": "inconclusive: -10.3%"},
      {"smiles": "COC(=O)C1CCN(S(=O)(=O)CCNC(=O)c2cccc(OC)c2)CC1", "lipid storage change, negative = inhibition": "inconclusive: 19%"},
      {"smiles": "Nc1nonc1C(=O)OCC(=O)N1CCOCC1", "lipid storage change, negative = inhibition": "inconclusive: 52.4%"},
      {"smiles": "Cc1ccc(-c2csc(=S)n2CC(=O)OCC(=O)NC(C)C(C)C)cc1", "note": "(centres undefined)", "lipid storage change, negative = inhibition": "inconclusive: -26.6%"},
      {"smiles": "C/C(=N\\NC(=O)Cc1ccc(Cl)cc1)c1cccnc1", "lipid storage change, negative = inhibition": "inconclusive: 18.6%"},
      {"smiles": "CCC(c1nnc(SCC(=O)Nc2ccc(C(C)=O)cc2)n1C1CCCCC1)N(C)C", "note": "(centres undefined)", "Potency": "inconclusive: 8.2 µM [falling, partial curve]"},
      {"smiles": "COCCn1c(C)cc(C2=NNC(=NC(C)(C)C)SC2)c1C", "lipid storage change, negative = inhibition": "inconclusive: 75%"},
      {"smiles": "CN(CCc1ccccc1)C(=O)c1cc(COc2ccc(F)cc2Cl)on1", "lipid storage change, negative = inhibition": "inconclusive: -58.6%"},
      {"smiles": "CC(Sc1ncn[nH]1)C(=O)Nc1cc(C(F)(F)F)ccc1Cl", "note": "(centres undefined)", "lipid storage change, negative = inhibition": "inconclusive: 21.9%"},
      {"smiles": "CN1CCN(NC(=S)Nc2ccc(OC(F)F)cc2)CC1", "lipid storage change, negative = inhibition": "inconclusive: -25.9%"},
      {"smiles": "Cc1ccc(C(=O)Cn2nnc(-c3cccs3)n2)cc1", "lipid storage change, negative = inhibition": "inconclusive: 14.8%"},
      {"smiles": "CC(=O)Nc1ccc(S(=O)(=O)NCC(=O)OCc2cc(=O)oc3ccc4ccccc4c23)cc1", "Potency": "inconclusive: 3.66 µM [activator, partial curve]"},
      {"smiles": "O=C(CCC(=O)N1CCOCC1)NCc1cccc(C(F)(F)F)c1", "Potency": "inconclusive: 2.31 µM [activator, single point]"},
      {"smiles": "O=C(Nc1ccnn1C1CCN(Cc2cccc(O)c2)CC1)C1CCCC1", "Potency": "inconclusive: 29.1 µM [falling, single point]"},
      {"smiles": "O=C1C(Oc2ccccc2)C(c2cccs2)N1Cc1ccc2c(c1)OCO2", "note": "(centres undefined)", "lipid storage change, negative = inhibition": "inconclusive: -4.02%"},
      {"smiles": "Cn1c(=O)c(Nc2ccc(O)cc2)c2c3c(cccc31)C(=O)c1ccccc1-2", "lipid storage change, negative = inhibition": "inactive"},
      {"smiles": "CCc1nonc1NC(=O)c1oc2ccc(Cl)cc2c1C", "lipid storage change, negative = inhibition": "inconclusive: 45%"},
      {"smiles": "Cc1ccc(C(C)C)c(OCc2nn(CC(=O)c3ccc(Cl)cc3)c3[n+]2CCCCC3)c1", "Potency": "inconclusive: 25.9 µM [cytotoxic, partial curve]"},
      {"smiles": "Cc1ccc(NC(=O)N2CCC(NC(=O)c3ccco3)CC2)cc1", "lipid storage change, negative = inhibition": "inconclusive: -52.1%"},
      {"smiles": "COc1ccc(C(=O)O)cc1S(=O)(=O)Nc1ccc(Oc2ccccc2)cc1", "lipid storage change, negative = inhibition": "inconclusive: -2.95%"},
      {"smiles": "CC1=C(C(=O)OC(C)C)C(c2coc3ccccc3c2=O)C2=C(CCCC2=O)N1", "note": "(centres undefined)", "lipid storage change, negative = inhibition": "inconclusive: -49.3%"},
      {"smiles": "CC(C(=O)NC1CCCCC1)N(Cc1ccccc1)C(=O)c1snc(C(N)=O)c1N", "note": "(centres undefined)", "Potency": "inconclusive: 0.651 µM [falling, single point]"},
      {"smiles": "CCN(CC)CCN(C(=O)c1ccc2ccccc2c1)c1nc2cc3c(cc2s1)OCO3", "Potency": "inconclusive: 0.291 µM [activator, full curve]"},
      {"smiles": "COc1ccc(CNc2nc3c(c(=O)[nH]c(=O)n3C)n2CCCc2ccccc2)cc1", "Potency": "inconclusive: 0.82 µM [rising, full curve, poor fit]"},
      {"smiles": "Cc1ccc(C(=O)Nc2ccc3c(c2)OCO3)cc1S(=O)(=O)N1CCOCC1", "lipid storage change, negative = inhibition": "inconclusive: 22%"},
      {"smiles": "O=C(CC12CC3CC(CC(C3)C1)C2)Nc1ccc2c(c1)COC2=O", "Potency": "inconclusive: 32.6 µM [falling, single point]"},
      {"smiles": "O=C(Nc1ccnn1C1CCN(Cc2cccc(OCCO)c2)CC1)C1CCOC1", "note": "(centres undefined)", "lipid storage change, negative = inhibition": "inconclusive: 17.1%"},
      {"smiles": "CC1=C(C(N)=O)C(c2ccccn2)n2nc(SCc3ccccc3)nc2N1", "note": "(centres undefined)", "lipid storage change, negative = inhibition": "inconclusive: 15.2%"},
      {"smiles": "COC(=O)c1sccc1S(=O)(=O)NC(C)c1cnn(-c2ccc(OC)cc2)c1C", "note": "(centres undefined)", "lipid storage change, negative = inhibition": "inactive"},
      {"smiles": "S=C(NCCSCc1c(Cl)cccc1Cl)Nc1ccccc1", "lipid storage change, negative = inhibition": "inconclusive: 2.89%"},
      {"smiles": "CCn1nc(C(=O)N2CCN(Cc3nc4ccccc4s3)CC2)c2ccccc2c1=O", "Potency": "inconclusive: 0.517 µM [falling, full curve, poor fit]"},
      {"smiles": "COc1ccc(NC(=O)c2sc3ncn(CC(=O)N4CCN(c5ccccn5)CC4)c(=O)c3c2C)c(OC)c1", "Potency": "inconclusive: 29.1 µM [activator, single point]"},
      {"smiles": "O=C(Nc1ccccc1C(F)(F)F)c1cc2ncc(CCCl)cn2n1", "lipid storage change, negative = inhibition": "inconclusive: -4.78%"},
      {"smiles": "O=C(Nc1ccc(Cl)cc1)Nc1nnc(CSc2ccc(Cl)cc2)s1", "lipid storage change, negative = inhibition": "inconclusive: 19.1%"},
      {"smiles": "COc1ccc(N2CCCn3c2nc2c3c(=O)n(Cc3ccccc3F)c(=O)n2C)cc1", "lipid storage change, negative = inhibition": "inconclusive: 5.51%"},
      {"smiles": "CCN(C(=O)COc1cc(OC)ccc1C(C)=O)C1CCS(=O)(=O)C1", "note": "(centres undefined)", "Potency": "inconclusive: 1.84 µM [falling, full curve, poor fit]"},
      {"smiles": "CCN(CC)CCCN1C(=O)C2C(C(=O)Nc3ccc(C(C)C)cc3)C3C=CC2(O3)C1C(=O)NC1CCCCC1", "note": "(centres undefined)", "Potency": "active: 16.4 µM"},
      {"smiles": "Cc1nc(CSc2ccc(Cl)cc2)cc(N2CCOCC2)n1", "lipid storage change, negative = inhibition": "inconclusive: 18.7%"},
      {"smiles": "CCOC(=O)/C(C(=Nc1ccccc1)Nc1ccccc1)=C(\\C)O", "lipid storage change, negative = inhibition": "inconclusive: 8.76%"},
      {"smiles": "Cc1cccc(Nc2nnc(SCC(=O)c3c(N)n(C4CC4)c(=O)[nH]c3=O)s2)c1C", "lipid storage change, negative = inhibition": "inconclusive: 19.4%"},
      {"smiles": "COc1cc(/C=C(\\C#N)c2nc3c(s2)CC(C)CC3)ccc1O", "note": "(centres undefined)", "lipid storage change, negative = inhibition": "inconclusive: -10.8%"},
      {"smiles": "C/C(Cn1cnc([N+](=O)[O-])n1)=N\\NC(=O)c1ccc(Br)cc1", "lipid storage change, negative = inhibition": "inconclusive: 18.5%"},
      {"smiles": "CN1CCN(C(=O)CN(Cc2ccccc2)S(C)(=O)=O)CC1", "Potency": "inconclusive: 0.461 µM [falling, full curve, poor fit]"},
      {"smiles": "Cc1nn2cc(-c3ccc(N)cc3)nc2s1", "lipid storage change, negative = inhibition": "inconclusive: 6.38%"},
      {"smiles": "CCc1nn2c(=O)c(S(=O)(=O)Nc3ccccc3)c(C)nc2s1", "Potency": "inconclusive: 0.103 µM [falling, full curve, poor fit]"},
      {"smiles": "O=C(CC(c1ccccc1)c1ccccc1O)NCCc1ccccc1", "note": "(centres undefined)", "lipid storage change, negative = inhibition": "inconclusive: 7.65%"},
      {"smiles": "CCOC(=O)c1c(-c2ccc(C)cc2)csc1NC(=O)C1CC=CCC1C(=O)O", "note": "(centres undefined)", "lipid storage change, negative = inhibition": "inconclusive: -37.6%"},
      {"smiles": "O=C(CSc1nnc(NC(=O)C2CCC2)s1)NC1CC1", "lipid storage change, negative = inhibition": "inconclusive: 12.7%"},
      {"smiles": "C/C(CC(=O)Nc1cc(C)ccn1)=N\\NC(=O)c1ccccc1C", "lipid storage change, negative = inhibition": "inconclusive: 12%"},
      {"smiles": "CC(=O)c1c(C)nn(C(=O)c2cccs2)c1C", "lipid storage change, negative = inhibition": "inconclusive: 0.489%"},
      {"smiles": "Cc1cccc(NC(=O)c2ccc3c(c2)CCN3S(C)(=O)=O)c1", "Potency": "inconclusive: 3.66 µM [activator, full curve]"},
      {"smiles": "COc1ccc2c(CCNC(=O)c3ccco3)c[nH]c2c1", "lipid storage change, negative = inhibition": "inconclusive: -13.7%"},
      {"smiles": "Cc1cc(OCC(=O)Nc2ccccc2N2CCOCC2)c(C(C)C)cc1Cl", "Potency": "inconclusive: 1.46 µM [falling, full curve]"},
      {"smiles": "COC(=O)C1(CC2CC(c3cccc(Br)c3)=NO2)CCN(C(=O)OC(C)(C)C)CC1", "note": "(centres undefined)", "Potency": "inconclusive: 20.6 µM [activator, single point]"},
      {"smiles": "Cc1cc(C)cc(OCC(=O)NCc2cc(C)nc3ccccc23)c1", "lipid storage change, negative = inhibition": "inconclusive: 32.2%"},
      {"smiles": "COc1ccc(C(=O)Nc2cc(C)nn2-c2ccc(F)cc2)cc1", "Potency": "inconclusive: 2.31 µM [activator, full curve]"},
      {"smiles": "O=C(NCc1ccccc1F)c1cccs1", "Potency": "inconclusive: 0.58 µM [falling, full curve, poor fit]"},
      {"smiles": "CN1CCN(S(=O)(=O)c2ccc(N3CCN(c4ccccc4Cl)CC3)nc2)CC1", "lipid storage change, negative = inhibition": "inconclusive: 8.36%"},
      {"smiles": "CC(Sc1ccccc1)C(=O)NNC(=O)c1ccncc1", "note": "(centres undefined)", "lipid storage change, negative = inhibition": "inconclusive: 48%"},
      {"smiles": "CCOC(=O)C(Cc1ccccc1)NC(=O)Cn1nnc(-c2ccc(SC)cc2)n1", "note": "(centres undefined)", "lipid storage change, negative = inhibition": "inconclusive: -37.6%"},
      {"smiles": "COCCNC(=O)c1cn(Cc2c(F)cccc2Cl)nn1", "lipid storage change, negative = inhibition": "inconclusive: -1.73%"},
      {"smiles": "COc1ccc(NC(=O)c2cccs2)cc1", "lipid storage change, negative = inhibition": "inactive"},
      {"smiles": "O=C(NCCNS(=O)(=O)c1ccccc1)c1cc(OCC(F)(F)F)ccc1OCC(F)(F)F", "lipid storage change, negative = inhibition": "inconclusive: -31.2%"},
      {"smiles": "C/C(=N/Nc1nc(-c2ccccc2)cc(-c2ccccc2)n1)c1ccc(N)cc1", "lipid storage change, negative = inhibition": "inconclusive: -22.1%"},
      {"smiles": "CCNc1nc(NCC)nc(N(CC)C(N)=S)n1", "Potency": "inconclusive: 20.6 µM [activator, single point]"},
      {"smiles": "COc1ccc(C(=O)N/N=C(\\C)CC(=O)Nc2ccccn2)cc1OC", "Potency": "inconclusive: 5.17 µM [activator, full curve]"},
      {"smiles": "O=C(O)CN1CCNCC1", "lipid storage change, negative = inhibition": "inconclusive: -1.01%"},
      {"smiles": "COC(=O)C1=CN(c2ccc(F)cc2)C=C(C(=O)OC)C1c1ccc([N+](=O)[O-])cc1", "lipid storage change, negative = inhibition": "inconclusive: -8.29%"},
      {"smiles": "O=C(CSCCO)Nc1cccc(C(F)(F)F)c1", "Potency": "inconclusive: 0.731 µM [falling, full curve]"},
      {"smiles": "COc1ccc(NC(=O)NC(c2ccccc2)c2ccccc2)c(OC)c1", "lipid storage change, negative = inhibition": "inconclusive: 115%"}
    ]}
  ]
}
